# Experimental data reported in the supplement of paper PMC4604168 (melanoma cell lines).
# The list shows a part of the results. Repeats are few or missing, and single values can be far off.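 Cells were imaged in 1,536-well plates, and nuclei stained with an antibody against cleaved PARP were counted against all DNA-stained nuclei to give the apoptosis fraction. Screening doses were chosen to leave most cells alive, and resting and induced cleaved-PARP levels differ strongly between cell lines.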
# Test system: CBRC016 (line from a melanoma biopsy)
# Assay: cleaved PARP positive nuclei fraction relative to DMSO control; melanoma cells; higher = more apoptosis
# Settings: library dose: low library concentration; 72 h
row,SMILES,cleaved PARP positive nuclei fraction [%]
1,"Cc1nc(Nc2ncc(C(=O)Nc3c(C)cccc3Cl)s2)cc(N2CCN(CCO)CC2)n1 [dasatanib] + O=C(CCCCCCC(=O)Nc1ccccc1)NO [vorinostat] (first compound 0.004 µM, partner dose 0.08 µM)",162
2,"Nc1cccc2c1CN(C1CCC(=O)NC1=O)C2=O (stereo unspecified) [lenalidomide] + CC(C)(C)c1cnc(CSc2cnc(NC(=O)C3CCNCC3)s2)o1 [SNS-032] (first compound 1 µM, partner dose 0.01 µM)",182
3,"OCc1c[nH]c2ccccc12 [Indole-3-carbinol] + Cc1ccc(NC(=O)c2cccc(N(C)C)c2)cc1NC(=O)c1ccc(O)cc1 [ZM336372] (first compound 0.8 µM, partner dose 2 µM)",252
4,"COc1cc(Nc2ncc(F)c(Nc3ccc4c(n3)NC(=O)C(C)(C)O4)n2)cc(OC)c1OC [Tamatinib] + COc1cc2c(Oc3ccc4[nH]c(C)cc4c3F)ncnc2cc1OCCCN1CCCC1 [cediranib] (first compound 0.4 µM, partner dose 0.4 µM)",26
5,"C#Cc1cccc(Nc2ncnc3cc(OCCOC)c(OCCOC)cc23)c1 [erlotinib] + CC(C)(C)c1cnc(CSc2cnc(NC(=O)C3CCNCC3)s2)o1 [SNS-032] (first compound 0.8 µM, partner dose 0.01 µM)",74
6,"Clc1ccc(Nc2nnc(Cc3ccncc3)c3ccccc23)cc1 [vatalanib] + Cc1cc(N2CCOCC2)cc2[nH]c(-c3c(NC[C@@H](O)c4cccc(Cl)c4)cc[nH]c3=O)nc12 [BMS536924] (first compound 2 µM, partner dose 0.2 µM)",60.3
